In PubChem BioAssay AID504834 (National Center for Advancing Translational Sciences (NCATS), 2011):
Out of some 320,000 compounds screened, about 22,000 (6.9%) were called active. Inconclusive results, whose numbers are uncertain, are shown with a selection of clear calls. The call rests on the fitted dose curve; in most records, active means well fitted inhibition curve with a large enough effect; inconclusive means small, poorly fitted or top-dose-only effect, or another doubt; inactive means no such curve, though single readings can be large or run the other way. A potency beside an inconclusive call is a rough fit, not a confirmed value.
Potency means the concentration at half of the fitted maximal effect.

Test: Primary qHTS for delayed death inhibitors of the malarial parasite plastid, 96 hour incubation
Conditions: P. falciparum luciferase reporter growth; series mostly up to 28.7 µM
In short: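 96 h incubation, 37 C, 5% CO2, of luciferase-reporter P. falciparum-infected RBCs (2% hematocrit, 0.05% parasitemia final) with test compounds; endpoint luminescence.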
In the case of `CN(C)CCNC(=S)Nc1ccc(Br)cc1`, the Potency is reported as “inactive”.
For `CC1CC(C)CN(CC(=O)NNC(=O)COc2ccc(Cl)cc2)C1` (stereo unspecified), the Potency was “inactive”.
With `O=C(c1ccc2c(Cl)c3c(nc2c1)CCCC3)N1CCC(N2CCCCC2)CC1` the Potency was inconclusive: 16.5 µM [inhibitor, single point].
For `Cc1cccc(N2CCN(C(=O)c3ccc(-n4cncn4)c([N+](=O)[O-])c3)CC2)c1C`, the Potency was inconclusive: 9.28 µM [inhibitor, partial curve].
In the case of `COc1ccccc1CN1C[C@@H]2C[C@@H](c3cccc(C)n3)N3CCC[C@@]23C1=O`, the Potency is reported as “inactive”.
For `CCn1cc(C(C)NC(=O)Nc2ccc3c(c2)OCO3)c(C)n1` (stereo unspecified), the Potency was inconclusive: 18.5 µM [inhibitor, single point].
In the case of `Cc1cc(=O)oc2c3c(cc(OCC(=O)NCc4ccccc4)c12)OC(C)(C)CC3`, the Potency is reported as active: 11.7 µM.
In the case of `CCOC(=O)CNC(=O)Cn1cnc2sc(C)c(S(=O)(=O)N3CCOCC3)c2c1=O`, the Potency is reported as inconclusive: 3.29 µM [inhibitor, partial curve].
For `O=C(CC1S/C(=N/N=C/C=C/c2ccccc2)NC1=O)Nc1ccc(C(=O)O)cc1` (stereo unspecified), the Potency was inconclusive: 18.5 µM [inhibitor, single point].
In the case of `CCc1ccc(N(C(=O)c2csnn2)C(C(=O)NC(C)(C)CC)c2cccnc2)cc1` (stereo unspecified), the Potency is reported as inconclusive: 0.294 µM [inhibitor, partial curve, poor fit].
With `Cc1ccc(CN2CCN(CC(=O)N3CCC4(CC3)OCCO4)C2=O)cc1` the Potency was active: 3.7 µM.
In the case of `O=C(NCc1ccccc1Cl)C1CCC(=O)N(C2CCCC2)C1` (stereo unspecified), the Potency is reported as inconclusive: 18.5 µM [inhibitor, single point].
With `CCc1ccc(N2CC(C)Cn3c2nc2c3c(=O)[nH]c(=O)n2C)cc1` (stereo unspecified) the Potency was active: 2.94 µM.
In the case of `Cc1ccc(CN2CCN(Cc3ccc(-n4cccn4)cc3)CC2CCO)cc1` (stereo unspecified), the Potency is reported as “inactive”.
In the case of `Cc1[nH]c2ccccc2c1CC(=O)O`, the Potency is reported as “inactive”.
With `C[C@H](NC(=O)[C@@H]1Cc2ccccc2CN1)C(=O)NC1CCCC1` the Potency was “inactive”.
For `CC(NC(=O)c1ccc2c(c1)OCCO2)c1ccc(S(N)(=O)=O)cc1` (stereo unspecified), the Potency was “inactive”.
In the case of `Cc1cc(SCC(=O)c2cccs2)n2nc(C)c(-c3ccccc3)c2n1`, the Potency is reported as “inactive”.
With `CN1C(=S)SC(/[N+]([O-])=C\c2cccs2)C1(C)C` (stereo unspecified) the Potency was inconclusive: 13.1 µM [inhibitor, single point].
With `O=C(Nc1ccc2c(c1)CCC2)C1COc2ccccc2O1` (stereo unspecified) the Potency was inconclusive: 16.5 µM [inhibitor, partial curve, poor fit].
For `CCCCNC(=O)CCn1c(=O)c2ccccc2n(Cc2cc(C)ccc2C)c1=O`, the Potency was “inactive”.
In the case of `Cc1cc(Cl)c(S(=O)(=O)N2CCN(c3cccc(C)c3C)CC2)cc1OCC(N)=O`, the Potency is reported as inconclusive: 10.4 µM [inhibitor, single point].
For `CC(C[N+](C)(C)C)OC(N)=O` (stereo unspecified), the Potency was active: 9.53 µM.
With `CNc1nc2c(c(=O)n(C)c(=O)n2C)n1Cc1ccccc1` the Potency was “inactive”.
For `Cc1ccc(S(=O)(=O)N2CC=C(c3ccc(F)cc3)CC2)cc1`, the Potency was “inactive”.
With `O=C(Cc1cccs1)N1CCCC(c2nc3c(nnn3Cc3ccc(F)cc3)c(=O)[nH]2)C1` (stereo unspecified) the Potency was “inactive”.
In the case of `COc1ccc(N2CCN(S(=O)(=O)c3c(C)[nH]c(C)c3C(=O)N3CCCCC3)CC2)cc1`, the Potency is reported as inconclusive: 2.33 µM [inhibitor, partial curve, poor fit].
In the case of `CCCCCCc1ccc(N2C[C@H](CCCCC)[C@@H](CC(=O)NCc3ccccc3)C2=O)cc1`, the Potency is reported as inconclusive: 13.1 µM [inhibitor, partial curve, poor fit].
With `CC(C)N(C(=O)CSc1nnc(NC(=O)C2CCC2)s1)C(C)C` the Potency was inconclusive: 10.4 µM [inhibitor, single point].
In the case of `CCOC(=O)C1(CCc2ccccc2)CCN(Cc2cccc3cnccc23)CC1`, the Potency is reported as active: 7.38 µM.
With `C/C(=N\NC(=O)c1nnn(-c2nonc2N)c1CN1CCCCCC1)c1ccc(Br)cc1` the Potency was inconclusive: 1.47 µM [inhibitor, full curve].
In the case of `COc1ccccc1CCNC(=O)CSc1ccc(-c2ccco2)nn1`, the Potency is reported as inconclusive: 18.5 µM [inhibitor, single point].
With `O=C(Nc1nc(-c2ccccc2)cs1)C1c2ccccc2Oc2ccccc21` the Potency was active: 10.4 µM.
For `Cc1ccc(CSc2nc3ccncc3[nH]2)cc1`, the Potency was inconclusive: 18.5 µM [inhibitor, single point].
In the case of `Cc1ccccc1C(=O)N1CCCN(C(=O)c2ccccc2C)CC1`, the Potency is reported as inconclusive: 9.28 µM [inhibitor, partial curve, poor fit].
In the case of `CC1=NN(c2ccccc2)C(=O)/C1=C/c1cc2cc(C)ccc2nc1N1CCCCC1`, the Potency is reported as “inactive”.
For `Cc1ccccc1CN1CCc2cc([N+](=O)[O-])ccc21`, the Potency was inconclusive: 8.28 µM [inhibitor, single point].
For `COc1ccc2c(c1)c(=O)c(C(=O)c1ccc(F)cc1)cn2CC(=O)Nc1ccc(F)cc1`, the Potency was inconclusive: 18.5 µM [inhibitor, single point].
With `CCc1cccc2c(C(=O)COC(=O)c3ccc(O)cc3)c[nH]c12` the Potency was “inactive”.
In the case of `CCNC(=O)CC1C(=O)N(c2ccccc2)C(=O)N1CCc1ccc(OC)cc1` (stereo unspecified), the Potency is reported as active: 11.7 µM.
In the case of `COc1ccc(NC(=O)c2cc(-c3cccnc3)nc3c(C)c(C)ccc23)c(OC)c1`, the Potency is reported as active: 0.828 µM.
In the case of `CCCCn1c(SCC(=O)c2ccc(OC)c(OC)c2)nc2cc(S(N)(=O)=O)ccc21`, the Potency is reported as inconclusive: 2.62 µM [inhibitor, partial curve, poor fit].
For `COc1ccccc1C(=O)NCCC(=O)N1CC=C(c2ccccc2)CC1`, the Potency was inconclusive: 16.5 µM [inhibitor, single point].
In the case of `Cc1ccc(C(=O)N/C(=C\C=C\c2ccccc2)C(=O)NCc2ccco2)cc1`, the Potency is reported as inconclusive: 14.7 µM [inhibitor, partial curve].
For `NCC(=O)CCC(=O)O`, the Potency was inconclusive: 15.1 µM [inhibitor, single point].
In the case of `COc1ccccc1C(=O)N1CCC(N2CCN(c3ccccc3OC)CC2)CC1`, the Potency is reported as inconclusive: 14.7 µM [inhibitor, single point].
